The other results are listed elsewhere or left out.
Each target was assayed with COc1ccc(Cn2ccc3cc(C)c(C(=O)NO)cc32)cc1 (assay: dose-dependent thermal stabilisation call (2D-TPP, DLPTP, 10% FDR) (binary (1 = stabilised)); higher = stabilised by the compound). Settings: system: HL-60 intact cells; concentration range 0.04-10 µM.
Protocol: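 2D thermal proteome profiling in intact HL-60 cells treated with BRD-3811 (0, 0.04, 0.29, 2, 10 uM) for 90 min at 37 C, then heated 3 min at one of 12 temperatures (42-63.9 C). Soluble protein was quantified by TMT10 MS. The value is the DLPTP call of the paper: dose-dependent thermal stabilisation over all temperatures at 10% FDR (F-test of a dose-response against a flat model); one experiment, one call per tested protein.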

Protein sequences, listed by entry. Tags and fused reporters are not part of them. Lines headed by an entry give the natural chain unless they say otherwise; changes in a name come on top.
UniProt Q96CU9: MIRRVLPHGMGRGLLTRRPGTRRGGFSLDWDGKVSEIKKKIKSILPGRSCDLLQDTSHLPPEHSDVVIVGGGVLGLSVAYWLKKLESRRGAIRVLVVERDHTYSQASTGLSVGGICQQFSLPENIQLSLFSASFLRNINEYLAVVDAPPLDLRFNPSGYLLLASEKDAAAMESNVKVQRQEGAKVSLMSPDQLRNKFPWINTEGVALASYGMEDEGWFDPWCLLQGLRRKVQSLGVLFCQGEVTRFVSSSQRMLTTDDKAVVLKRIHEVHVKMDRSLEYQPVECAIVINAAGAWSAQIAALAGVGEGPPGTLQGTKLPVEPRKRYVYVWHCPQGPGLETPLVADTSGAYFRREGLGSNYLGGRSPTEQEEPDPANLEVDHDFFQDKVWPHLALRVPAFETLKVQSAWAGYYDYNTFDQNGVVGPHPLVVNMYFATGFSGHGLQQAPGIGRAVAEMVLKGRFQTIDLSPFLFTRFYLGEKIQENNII
UniProt Q00688: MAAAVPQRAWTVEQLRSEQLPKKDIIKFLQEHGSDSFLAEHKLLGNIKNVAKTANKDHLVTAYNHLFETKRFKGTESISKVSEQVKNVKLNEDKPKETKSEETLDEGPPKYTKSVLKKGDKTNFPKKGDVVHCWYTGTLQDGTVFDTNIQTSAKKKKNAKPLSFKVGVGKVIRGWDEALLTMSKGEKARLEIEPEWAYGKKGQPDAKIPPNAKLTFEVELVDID
UniProt Q01415: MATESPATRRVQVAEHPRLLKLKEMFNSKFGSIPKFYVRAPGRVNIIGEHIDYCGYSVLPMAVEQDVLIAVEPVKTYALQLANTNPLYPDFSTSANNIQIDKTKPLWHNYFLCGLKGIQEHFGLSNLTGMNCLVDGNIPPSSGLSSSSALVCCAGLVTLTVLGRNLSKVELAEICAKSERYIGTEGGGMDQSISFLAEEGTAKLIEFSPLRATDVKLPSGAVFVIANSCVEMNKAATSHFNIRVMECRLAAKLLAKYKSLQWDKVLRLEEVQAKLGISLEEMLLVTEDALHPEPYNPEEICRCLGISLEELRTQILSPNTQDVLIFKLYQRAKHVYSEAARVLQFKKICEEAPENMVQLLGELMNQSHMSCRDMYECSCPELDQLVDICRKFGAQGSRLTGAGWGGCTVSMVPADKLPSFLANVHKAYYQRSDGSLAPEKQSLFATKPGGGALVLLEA
UniProt P02794, whole entry: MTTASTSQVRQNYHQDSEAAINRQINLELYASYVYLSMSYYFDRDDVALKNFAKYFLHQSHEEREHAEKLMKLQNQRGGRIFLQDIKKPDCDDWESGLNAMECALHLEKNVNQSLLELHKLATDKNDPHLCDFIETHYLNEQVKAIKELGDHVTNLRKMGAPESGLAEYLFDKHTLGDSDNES
UniProt Q8IYT2: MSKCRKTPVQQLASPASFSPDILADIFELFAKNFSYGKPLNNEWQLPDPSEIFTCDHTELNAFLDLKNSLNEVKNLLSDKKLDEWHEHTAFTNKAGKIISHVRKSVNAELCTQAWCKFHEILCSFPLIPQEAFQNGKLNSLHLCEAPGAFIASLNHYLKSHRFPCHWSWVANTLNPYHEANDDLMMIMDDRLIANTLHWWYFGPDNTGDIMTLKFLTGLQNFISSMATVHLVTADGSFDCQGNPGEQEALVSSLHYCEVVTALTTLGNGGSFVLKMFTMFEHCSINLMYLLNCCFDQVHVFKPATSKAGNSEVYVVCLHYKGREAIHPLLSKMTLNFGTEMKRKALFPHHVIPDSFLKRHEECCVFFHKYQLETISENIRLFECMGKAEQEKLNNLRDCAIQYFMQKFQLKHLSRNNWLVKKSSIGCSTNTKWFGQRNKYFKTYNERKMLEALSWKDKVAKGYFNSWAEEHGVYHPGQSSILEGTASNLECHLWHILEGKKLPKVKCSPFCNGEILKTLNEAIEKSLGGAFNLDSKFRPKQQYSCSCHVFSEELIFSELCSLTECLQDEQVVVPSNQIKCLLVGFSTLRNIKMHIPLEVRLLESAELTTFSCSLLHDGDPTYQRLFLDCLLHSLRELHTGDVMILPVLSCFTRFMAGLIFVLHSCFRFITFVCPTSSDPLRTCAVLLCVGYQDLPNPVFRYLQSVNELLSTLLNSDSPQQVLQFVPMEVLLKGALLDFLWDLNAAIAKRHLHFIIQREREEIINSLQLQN
UniProt Q9NVK5: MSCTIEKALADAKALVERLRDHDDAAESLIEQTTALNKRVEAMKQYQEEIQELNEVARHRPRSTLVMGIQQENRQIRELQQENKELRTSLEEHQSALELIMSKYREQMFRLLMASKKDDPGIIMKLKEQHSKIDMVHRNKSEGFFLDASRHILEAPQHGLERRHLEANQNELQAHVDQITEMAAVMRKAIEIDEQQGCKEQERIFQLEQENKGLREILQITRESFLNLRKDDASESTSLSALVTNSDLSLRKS
UniProt P62879, whole entry: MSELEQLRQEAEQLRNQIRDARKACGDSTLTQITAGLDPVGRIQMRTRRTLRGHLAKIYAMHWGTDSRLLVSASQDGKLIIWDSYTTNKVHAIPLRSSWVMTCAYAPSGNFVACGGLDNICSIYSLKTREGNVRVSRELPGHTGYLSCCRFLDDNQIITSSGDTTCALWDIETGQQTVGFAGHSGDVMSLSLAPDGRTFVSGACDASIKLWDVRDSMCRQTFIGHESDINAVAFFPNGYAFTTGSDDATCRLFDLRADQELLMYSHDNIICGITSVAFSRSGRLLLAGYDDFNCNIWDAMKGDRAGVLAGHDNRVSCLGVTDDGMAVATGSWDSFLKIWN
UniProt P32456: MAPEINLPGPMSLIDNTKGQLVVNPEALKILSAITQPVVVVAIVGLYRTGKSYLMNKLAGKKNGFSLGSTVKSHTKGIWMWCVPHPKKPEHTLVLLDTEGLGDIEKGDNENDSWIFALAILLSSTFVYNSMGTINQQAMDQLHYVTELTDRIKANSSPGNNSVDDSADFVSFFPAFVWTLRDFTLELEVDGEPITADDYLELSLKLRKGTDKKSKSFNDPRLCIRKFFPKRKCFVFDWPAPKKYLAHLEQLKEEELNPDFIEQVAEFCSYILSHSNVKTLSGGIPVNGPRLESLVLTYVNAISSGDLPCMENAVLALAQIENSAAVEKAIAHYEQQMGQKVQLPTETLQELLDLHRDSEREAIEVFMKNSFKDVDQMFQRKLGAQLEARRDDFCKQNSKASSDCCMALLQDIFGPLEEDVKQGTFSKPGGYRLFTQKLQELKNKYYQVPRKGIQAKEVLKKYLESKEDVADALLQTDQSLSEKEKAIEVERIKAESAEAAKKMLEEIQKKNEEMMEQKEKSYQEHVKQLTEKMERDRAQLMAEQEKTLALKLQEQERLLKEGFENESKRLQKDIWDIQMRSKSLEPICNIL
UniProt Q9UHY8: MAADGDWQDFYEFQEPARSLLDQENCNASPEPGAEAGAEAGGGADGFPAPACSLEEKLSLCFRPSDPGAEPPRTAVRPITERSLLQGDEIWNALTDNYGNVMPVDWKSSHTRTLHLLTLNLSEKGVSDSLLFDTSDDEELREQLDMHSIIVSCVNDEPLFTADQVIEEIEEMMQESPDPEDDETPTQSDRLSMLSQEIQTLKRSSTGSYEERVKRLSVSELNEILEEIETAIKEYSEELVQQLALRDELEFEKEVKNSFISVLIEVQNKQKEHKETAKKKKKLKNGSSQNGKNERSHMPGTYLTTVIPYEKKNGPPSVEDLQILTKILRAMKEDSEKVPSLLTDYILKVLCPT
UniProt Q9BXW9: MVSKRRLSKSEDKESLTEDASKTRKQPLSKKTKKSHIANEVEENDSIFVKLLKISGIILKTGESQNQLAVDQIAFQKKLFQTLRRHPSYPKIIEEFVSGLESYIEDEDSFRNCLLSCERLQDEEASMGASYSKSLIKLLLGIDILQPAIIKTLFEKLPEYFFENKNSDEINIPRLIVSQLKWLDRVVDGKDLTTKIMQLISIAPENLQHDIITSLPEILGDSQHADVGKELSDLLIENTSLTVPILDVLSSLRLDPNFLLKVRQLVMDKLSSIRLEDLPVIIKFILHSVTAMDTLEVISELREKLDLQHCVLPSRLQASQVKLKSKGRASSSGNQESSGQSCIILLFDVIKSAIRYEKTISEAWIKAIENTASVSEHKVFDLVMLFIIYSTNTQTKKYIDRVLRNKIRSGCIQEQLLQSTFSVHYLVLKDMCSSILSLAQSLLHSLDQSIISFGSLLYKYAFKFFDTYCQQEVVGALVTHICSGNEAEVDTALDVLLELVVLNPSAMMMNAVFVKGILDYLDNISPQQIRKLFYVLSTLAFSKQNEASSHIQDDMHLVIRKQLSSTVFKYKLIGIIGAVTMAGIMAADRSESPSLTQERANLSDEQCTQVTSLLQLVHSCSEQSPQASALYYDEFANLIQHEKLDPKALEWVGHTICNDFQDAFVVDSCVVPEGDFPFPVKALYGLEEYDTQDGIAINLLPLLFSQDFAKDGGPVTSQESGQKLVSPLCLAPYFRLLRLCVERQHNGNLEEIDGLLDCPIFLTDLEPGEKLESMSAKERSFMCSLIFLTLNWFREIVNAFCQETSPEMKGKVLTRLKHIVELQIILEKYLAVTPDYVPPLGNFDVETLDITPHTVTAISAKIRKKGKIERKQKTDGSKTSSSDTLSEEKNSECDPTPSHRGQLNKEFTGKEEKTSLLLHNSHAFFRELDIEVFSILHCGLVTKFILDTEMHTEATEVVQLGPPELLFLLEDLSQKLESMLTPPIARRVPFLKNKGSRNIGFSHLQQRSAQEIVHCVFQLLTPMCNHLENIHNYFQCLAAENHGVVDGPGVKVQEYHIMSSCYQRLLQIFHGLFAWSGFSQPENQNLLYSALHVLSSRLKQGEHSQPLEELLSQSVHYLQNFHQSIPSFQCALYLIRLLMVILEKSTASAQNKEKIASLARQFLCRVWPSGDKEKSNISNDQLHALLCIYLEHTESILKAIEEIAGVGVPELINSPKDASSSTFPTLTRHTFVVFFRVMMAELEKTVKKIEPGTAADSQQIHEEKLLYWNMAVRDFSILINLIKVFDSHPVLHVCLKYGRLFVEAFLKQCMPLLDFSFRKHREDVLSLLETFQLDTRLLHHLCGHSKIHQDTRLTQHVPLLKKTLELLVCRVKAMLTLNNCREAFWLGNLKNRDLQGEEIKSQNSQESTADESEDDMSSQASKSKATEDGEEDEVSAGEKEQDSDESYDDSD
UniProt Q8WZA9: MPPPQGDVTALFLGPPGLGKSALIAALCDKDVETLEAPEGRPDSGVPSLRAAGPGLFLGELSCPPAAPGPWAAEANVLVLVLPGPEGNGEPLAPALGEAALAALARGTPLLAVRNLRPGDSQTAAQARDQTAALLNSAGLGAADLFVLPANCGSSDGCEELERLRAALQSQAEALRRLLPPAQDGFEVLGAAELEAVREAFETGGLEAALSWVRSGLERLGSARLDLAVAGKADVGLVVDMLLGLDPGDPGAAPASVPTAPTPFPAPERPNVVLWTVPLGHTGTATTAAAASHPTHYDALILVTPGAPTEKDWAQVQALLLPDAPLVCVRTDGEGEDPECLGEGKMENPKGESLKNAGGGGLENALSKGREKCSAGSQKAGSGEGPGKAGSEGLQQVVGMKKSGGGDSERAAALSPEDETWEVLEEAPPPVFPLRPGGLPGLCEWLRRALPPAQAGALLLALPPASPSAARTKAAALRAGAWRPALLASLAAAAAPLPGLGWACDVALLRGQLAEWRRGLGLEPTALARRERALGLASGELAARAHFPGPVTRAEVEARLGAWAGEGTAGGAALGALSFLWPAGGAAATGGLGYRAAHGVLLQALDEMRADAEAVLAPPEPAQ
UniProt Q14376: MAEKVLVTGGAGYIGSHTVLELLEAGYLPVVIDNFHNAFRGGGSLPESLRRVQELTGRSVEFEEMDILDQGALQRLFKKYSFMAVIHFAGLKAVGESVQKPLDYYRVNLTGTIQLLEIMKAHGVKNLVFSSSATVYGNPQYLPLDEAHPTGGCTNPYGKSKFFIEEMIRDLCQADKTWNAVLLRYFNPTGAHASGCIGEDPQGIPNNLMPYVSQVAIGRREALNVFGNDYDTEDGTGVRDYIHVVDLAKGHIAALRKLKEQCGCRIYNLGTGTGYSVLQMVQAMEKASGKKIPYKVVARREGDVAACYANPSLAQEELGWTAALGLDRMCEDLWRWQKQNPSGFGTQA
UniProt Q9UBU6: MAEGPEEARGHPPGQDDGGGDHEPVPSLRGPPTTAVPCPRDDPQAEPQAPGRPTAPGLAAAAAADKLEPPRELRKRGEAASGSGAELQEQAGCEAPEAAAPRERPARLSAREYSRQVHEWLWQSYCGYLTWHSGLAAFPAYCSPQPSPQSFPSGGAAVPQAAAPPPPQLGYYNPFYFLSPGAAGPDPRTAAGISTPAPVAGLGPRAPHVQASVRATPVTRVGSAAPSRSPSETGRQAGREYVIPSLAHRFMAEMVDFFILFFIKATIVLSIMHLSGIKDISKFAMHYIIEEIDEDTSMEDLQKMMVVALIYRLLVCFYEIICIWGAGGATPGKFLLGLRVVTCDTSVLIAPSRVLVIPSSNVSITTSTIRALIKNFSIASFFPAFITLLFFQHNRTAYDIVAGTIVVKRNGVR

Target	dose-dependent thermal stabilisation call
FOXRED1 (UniProt Q96CU9)	inactive: 0
FBXL11 (UniProt Q9Y2K7)	inactive: 0
FBXL10 (UniProt Q8NHM5)	inactive: 0
GLCE (UniProt O94923)	inactive: 0
FKBP3 (UniProt Q00688)	inactive: 0
FLOT2 (UniProt Q14254)	inactive: 0
FGD3 (UniProt Q5JSP0)	inactive: 0
GALK2 (UniProt Q01415)	inactive: 0
FLJ45032	inactive: 0
FTH1 (UniProt P02794)	inactive: 0
FUCA1 (UniProt P04066)	inactive: 0
FTSJD1 (UniProt Q8IYT2)	inactive: 0
GLT25D2 (UniProt Q8IYK4)	inactive: 0
FTL (UniProt P02792)	inactive: 0
FGFR1OP2 (UniProt Q9NVK5)	inactive: 0
GNB2 (UniProt P62879)	inactive: 0
GCLM (UniProt P48507)	inactive: 0
FECH (UniProt P22830)	inactive: 0

Target	dose-dependent thermal stabilisation call
GBP2 (UniProt P32456)	inactive: 0
FBRS (UniProt Q9HAH7)	inactive: 0
FEZ2 (UniProt Q9UHY8)	inactive: 0
GLS (UniProt O94925)	inactive: 0
FANCD2 (UniProt Q9BXW9)	inactive: 0
GCLC (UniProt P48506)	inactive: 0
FKSG27 (UniProt Q8WZA9)	inactive: 0
FARSA (UniProt Q9Y285)	inactive: 0
GLT25D1 (UniProt Q8NBJ5)	inactive: 0
FRAG1	inactive: 0
GALE (UniProt Q14376)	inactive: 0
GCDH (UniProt Q92947)	inactive: 0
GLA (UniProt P06280)	inactive: 0
FBXL8 (UniProt Q96CD0)	inactive: 0
FOXRED2 (UniProt Q8IWF2)	inactive: 0
FAM8A1 (UniProt Q9UBU6)	inactive: 0
FMNL2 (UniProt Q96PY5)	inactive: 0
GEMIN6 (UniProt Q8WXD5)	inactive: 0

Two entries picked at random from the list so far, as already listed:
Target	dose-dependent thermal stabilisation call
FAM8A1 (UniProt Q9UBU6)	inactive: 0
FEZ2 (UniProt Q9UHY8)	inactive: 0
